These results are taken from PMC3640950.

The chains behind the UniProt entries cited, without tags or fusion partners. Where a name states a change or a piece, a line headed by the entry shows the natural chain unless it says otherwise.
UniProt Q9H0K1: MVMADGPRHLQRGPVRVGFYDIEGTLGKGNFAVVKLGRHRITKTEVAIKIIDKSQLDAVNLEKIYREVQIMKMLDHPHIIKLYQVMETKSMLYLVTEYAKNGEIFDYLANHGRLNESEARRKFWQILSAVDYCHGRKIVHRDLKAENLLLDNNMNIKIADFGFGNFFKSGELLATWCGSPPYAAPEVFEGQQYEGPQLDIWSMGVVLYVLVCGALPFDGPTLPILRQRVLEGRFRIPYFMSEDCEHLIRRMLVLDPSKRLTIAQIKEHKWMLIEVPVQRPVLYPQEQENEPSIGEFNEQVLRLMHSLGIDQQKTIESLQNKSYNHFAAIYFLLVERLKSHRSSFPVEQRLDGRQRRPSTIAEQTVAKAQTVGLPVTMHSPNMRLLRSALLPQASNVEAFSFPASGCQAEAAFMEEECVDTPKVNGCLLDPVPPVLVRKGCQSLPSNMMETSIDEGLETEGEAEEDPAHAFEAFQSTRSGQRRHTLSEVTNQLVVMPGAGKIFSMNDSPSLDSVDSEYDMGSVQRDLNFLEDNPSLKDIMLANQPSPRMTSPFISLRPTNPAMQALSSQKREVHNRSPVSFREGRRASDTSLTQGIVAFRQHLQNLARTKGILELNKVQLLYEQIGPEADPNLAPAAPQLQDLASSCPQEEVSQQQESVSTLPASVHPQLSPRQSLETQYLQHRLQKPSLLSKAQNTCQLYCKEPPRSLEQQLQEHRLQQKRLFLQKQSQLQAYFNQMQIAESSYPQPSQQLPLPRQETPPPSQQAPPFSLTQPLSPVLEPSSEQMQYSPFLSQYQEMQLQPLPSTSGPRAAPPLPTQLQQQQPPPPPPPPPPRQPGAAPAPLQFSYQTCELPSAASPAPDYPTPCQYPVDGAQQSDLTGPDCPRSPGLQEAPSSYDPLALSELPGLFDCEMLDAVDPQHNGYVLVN
UniProt P57059: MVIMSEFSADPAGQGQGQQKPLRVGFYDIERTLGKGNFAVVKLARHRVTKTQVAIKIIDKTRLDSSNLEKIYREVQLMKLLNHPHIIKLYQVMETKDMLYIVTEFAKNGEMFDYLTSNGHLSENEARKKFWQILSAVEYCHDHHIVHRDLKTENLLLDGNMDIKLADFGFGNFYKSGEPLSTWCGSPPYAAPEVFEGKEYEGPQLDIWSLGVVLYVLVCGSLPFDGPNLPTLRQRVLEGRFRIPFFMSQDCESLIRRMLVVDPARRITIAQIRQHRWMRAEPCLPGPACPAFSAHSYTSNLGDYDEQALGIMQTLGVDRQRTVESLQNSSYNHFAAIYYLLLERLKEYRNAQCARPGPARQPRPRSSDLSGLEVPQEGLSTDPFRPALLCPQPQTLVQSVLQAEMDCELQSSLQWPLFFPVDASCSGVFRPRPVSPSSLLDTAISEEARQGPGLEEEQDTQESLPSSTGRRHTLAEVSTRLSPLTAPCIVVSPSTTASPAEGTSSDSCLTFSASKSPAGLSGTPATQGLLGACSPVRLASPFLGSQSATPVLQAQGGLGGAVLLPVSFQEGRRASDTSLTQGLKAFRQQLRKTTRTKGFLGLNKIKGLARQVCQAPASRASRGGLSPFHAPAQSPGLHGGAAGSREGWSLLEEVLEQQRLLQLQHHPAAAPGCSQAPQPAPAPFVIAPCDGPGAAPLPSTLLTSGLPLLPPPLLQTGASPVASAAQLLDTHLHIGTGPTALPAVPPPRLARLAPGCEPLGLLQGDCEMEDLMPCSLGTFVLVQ

One assay concerns the target GST-SIK2 (pEBG-SIK2) (UniProt Q9H0K1). The assay is described as follows: pull-down; HEK293T cells co-transfected with pEBG-SIK2 or pEBG-SIK3 and pCAG-Tax-V5; GST-SIK2/3 pulled down from the cleared lysate with glutathione Sepharose 4B, 2 hr at 4°C; blot with anti-Tax.
For assay [1], the target named is T1, Flag-LKB1 wild type (pCMV-Tag2-LKB1) (UniProt Q15831).
T1 sequence: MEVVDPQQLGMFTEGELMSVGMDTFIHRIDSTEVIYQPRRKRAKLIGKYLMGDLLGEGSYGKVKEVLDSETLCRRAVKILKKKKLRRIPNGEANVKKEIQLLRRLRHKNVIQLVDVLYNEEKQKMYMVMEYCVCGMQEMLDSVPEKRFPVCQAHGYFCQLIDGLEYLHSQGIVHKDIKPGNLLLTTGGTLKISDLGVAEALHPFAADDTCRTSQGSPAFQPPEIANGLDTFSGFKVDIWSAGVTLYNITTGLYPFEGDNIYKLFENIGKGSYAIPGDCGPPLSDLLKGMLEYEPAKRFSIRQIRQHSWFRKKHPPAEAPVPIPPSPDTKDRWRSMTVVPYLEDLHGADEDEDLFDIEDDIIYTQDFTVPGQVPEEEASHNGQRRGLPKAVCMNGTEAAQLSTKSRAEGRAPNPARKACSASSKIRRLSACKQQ
The assay is described as follows: co-IP; HEK293T cells co-transfected with pCMV-Tag2-LKB1 or pCMV-Tag2-SIK1 and pCAG-Tax-V5; Flag-LKB1/SIK1 precipitated with mouse anti-Flag (M2) and protein G agarose, 2 hr at 4°C, buffer 20 mM Tris-HCl pH 7.5, 100 mM NaCl, 0.5 mM EDTA, 0.5% NP-40; blot with anti-Tax.

Assay [2] addresses Flag-SIK1 wild type (pCMV-Tag2-SIK1) (UniProt P57059). The description is as above.
In assay [3] the target is Flag-SIK1-K56M (kinase-defective mutant, pCMV-Tag2-SIK1-K56M) (UniProt P57059). The assay is described as above.

No constants are given. Whether binding was seen depends on the method and setting. In cells and extracts the contact can be indirect. Some entries that bind do so weakly or less than the wild type. For some of these results: Tags and fused reporters may be left off the sequences shown.

Consider “Tax-V5 (HTLV-1 Tax oncoprotein expressed from pCAG-Tax-V5) (from UniProt P03409 1-353)”, for which the binding entry is reported as “binds” with GST-SIK2 (pEBG-SIK2), “binds” in assay [1], “binds” in assay [2] and “no binding” in assay [3].
